Where a chain is given by its changes, count along the chain named. These are yes or no findings as the source states them, for the method shown. In cells and extracts the contact can be indirect. Some binding calls cover weakened binding; strength is not graded here. For some of these results: Where a sequence is shown, tags or fusion partners need not be part of it.

Chains of the proteins cited; added tags and fusions are not shown.
UniProt P46937: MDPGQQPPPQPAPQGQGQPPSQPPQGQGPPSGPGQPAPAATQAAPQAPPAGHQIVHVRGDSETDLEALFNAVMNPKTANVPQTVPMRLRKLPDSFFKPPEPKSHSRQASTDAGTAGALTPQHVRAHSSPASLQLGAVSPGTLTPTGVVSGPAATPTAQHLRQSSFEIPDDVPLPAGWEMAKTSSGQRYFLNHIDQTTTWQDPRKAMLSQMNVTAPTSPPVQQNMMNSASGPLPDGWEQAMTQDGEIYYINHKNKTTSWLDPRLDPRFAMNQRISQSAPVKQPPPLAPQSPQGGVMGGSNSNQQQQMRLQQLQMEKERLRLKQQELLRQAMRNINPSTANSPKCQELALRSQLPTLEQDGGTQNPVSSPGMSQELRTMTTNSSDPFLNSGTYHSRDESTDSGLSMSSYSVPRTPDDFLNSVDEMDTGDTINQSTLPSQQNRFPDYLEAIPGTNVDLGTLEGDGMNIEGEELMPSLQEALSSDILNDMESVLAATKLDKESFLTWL

In one test the target is T1, Flag-TRIM11 full length (UniProt Q96F44).
T1 sequence: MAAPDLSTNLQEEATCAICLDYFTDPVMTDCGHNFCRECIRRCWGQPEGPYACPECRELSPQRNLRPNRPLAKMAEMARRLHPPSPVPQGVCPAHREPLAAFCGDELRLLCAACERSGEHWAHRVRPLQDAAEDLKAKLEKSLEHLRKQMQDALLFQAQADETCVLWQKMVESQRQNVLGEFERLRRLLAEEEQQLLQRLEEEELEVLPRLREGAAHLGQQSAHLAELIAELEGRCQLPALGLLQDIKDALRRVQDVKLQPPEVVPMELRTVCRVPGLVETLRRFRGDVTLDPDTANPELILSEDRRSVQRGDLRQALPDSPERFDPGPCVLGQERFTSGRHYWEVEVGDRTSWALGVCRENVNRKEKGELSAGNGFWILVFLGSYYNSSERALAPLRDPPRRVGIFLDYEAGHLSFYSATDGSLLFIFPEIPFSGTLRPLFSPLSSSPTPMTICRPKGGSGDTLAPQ
Put plainly: co-IP; HEK293 cells co-transfected with Flag-TRIM11 and Myc-YAP alpha (full length or mutants), harvested after 24 h with NP-40 lysis buffer; IP with Flag antibody and blot with Myc antibody (4C) or IP with Myc antibody and blot with Flag antibody (4D).

Test [1] has as its target YAP (endogenous, CAL62 cells) (human (endogenous in CAL62)) (UniProt P46937). The experiment in a line: co-IP; endogenous proteins from CAL62 cell lysate (RIPA lysis buffer by the legend, co-IP lysis buffer by the methods); precleared with rabbit IgG, IP with anti-TRIM11 or anti-YAP overnight, rabbit IgG as negative control; Western blot with anti-YAP or anti-TRIM11. For orientation: A western blot detects proteins with antibodies after separation by electrophoresis.

Test [2] addresses YAP (GST pull-down assay, in vitro) (UniProt P46937). The experiment in a line: pull-down; GST pull-down, in vitro (Figure S2).
Test [3] deals with YAP (endogenous, CAL62 cells) (human (endogenous in CAL62)) (UniProt P46937). Put plainly: co-IP; Myc-TRIM11-2CA expressed in CAL62 cells, endogenous YAP.

For “Myc-YAP alpha full length (from UniProt P46937 1-504)”, the binding entry with Flag-TRIM11 full length is “binds”.

B1: TRIM11 (endogenous, CAL62 cells) (protein, UniProt Q96F44 1-468)
chain: T1 sequence
Turning to B1, the binding entry in test [1] was “binds”.

B2: TRIM11 (GST pull-down assay, in vitro) (protein, UniProt Q96F44 1-468)
chain: T1 sequence
B2: the binding entry in test [2] was “binds”.

B3: Myc-TRIM11-2CA (protein, UniProt Q96F44 1-468)
chain: T1 sequence with C16A, C19A
On to B3, for which the binding result in test [3] was “binds”.

(Values after PMC7893578.)
